Data as given in paper PMC6530996, “HspB1 phosphorylation regulates its intramolecular dynamics and mechanosensitive molecular chaperone interaction with filamin C” (Science Advances, 2019).
No constants are given. Whether binding was seen depends on the method and setting. Where a sequence is shown, tags or fusion partners need not be part of it.

The chains behind the UniProt entries cited, without tags or fusion partners. Residues count along the entry.
UniProt P04792, residues 84-171: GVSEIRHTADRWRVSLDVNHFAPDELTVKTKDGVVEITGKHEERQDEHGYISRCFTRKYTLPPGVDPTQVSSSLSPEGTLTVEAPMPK

Biological target: T1, human FLNC domains 18 to 21 (FLNC_(d18–21)), EEF-tagged (human) (UniProt Q14315)
T1 sequence: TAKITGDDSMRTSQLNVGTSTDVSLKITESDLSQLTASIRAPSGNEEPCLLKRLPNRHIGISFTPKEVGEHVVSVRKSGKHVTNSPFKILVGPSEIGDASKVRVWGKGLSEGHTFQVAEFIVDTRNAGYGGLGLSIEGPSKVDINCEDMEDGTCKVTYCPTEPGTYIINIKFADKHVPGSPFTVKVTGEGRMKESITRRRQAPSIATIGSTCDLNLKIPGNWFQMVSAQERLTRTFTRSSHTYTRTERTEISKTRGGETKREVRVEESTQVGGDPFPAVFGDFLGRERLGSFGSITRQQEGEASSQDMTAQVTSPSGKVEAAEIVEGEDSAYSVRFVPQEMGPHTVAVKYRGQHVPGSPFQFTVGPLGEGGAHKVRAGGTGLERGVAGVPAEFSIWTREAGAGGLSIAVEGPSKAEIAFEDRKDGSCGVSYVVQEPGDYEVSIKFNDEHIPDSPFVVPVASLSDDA
Assay: native MS; native IM-MS of mixtures of FLNC_(d18–21) or FLNC_(d18–21,ΔI) with HspB1_(84–171), HspB1 peptides or an excess of control peptides; 200 mM ammonium acetate pH 6.9; both purified

Row | Substance | binding
1 | human HspB1 α-crystallin domain, HspB1_(84–171) (from UniProt P04792 84-171) (domain or fragment) | no binding
2 | peptide mimicking HspB1 C-terminal residues 177 to 186 (from UniProt P04792 177-186) | no binding (tested: an excess of peptide)
